From patent US20250205259A1, “CLASS OF 7-((FIVE-MEMBERED HETEROCYCLIC)METHYL)-8-CARBOXYLIC ACID-BENZO CYCLIC BORATE DERIVATIVES AND USES THEREOF” (priority 2022, published 2025)
Some results were stated once for a whole list of compounds, not compound by compound.

Target: T1, SHV-12 (UniProt P0AD64, L31Q/G234S/E235K, species not given)
T1 sequence (P0AD64 1-286 L31Q/G234S/E235K): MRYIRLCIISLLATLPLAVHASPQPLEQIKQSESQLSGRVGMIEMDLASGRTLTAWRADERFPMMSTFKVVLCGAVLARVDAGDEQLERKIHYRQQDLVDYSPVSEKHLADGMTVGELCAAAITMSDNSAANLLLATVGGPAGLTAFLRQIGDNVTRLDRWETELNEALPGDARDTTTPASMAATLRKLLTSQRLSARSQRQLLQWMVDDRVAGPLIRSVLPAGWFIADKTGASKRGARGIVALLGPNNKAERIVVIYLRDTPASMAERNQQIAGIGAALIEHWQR
Assay: Inhibitory activity on SBL, fluorescent substrate FC-5
Format: biochemical
Details: comparison in words

| SMILES | inhibitory activity on SHV-12 compared to control drugs |
| --- | --- |
| O=C(O)c1c(Cn2nccn2)ccc2c1OB(O)CC2 [Compound 1] | lower than that of avibactam and tazobactam |
| C[n+]1ccn(Cc2ccc3c(c2C(=O)O)OB(O)CC3)n1 [Compound 3] | lower than that of avibactam and tazobactam |
| NCc1ccn(Cc2ccc3c(c2C(=O)O)OB(O)CC3)n1 [Compound 42] | lower than that of avibactam and tazobactam |
| CO[C@H]1Cc2ccc(Cn3ccnn3)c(C(=O)O)c2OB1O [Compound 30] | lower than that of avibactam and tazobactam |
| N#Cc1cccn1Cc1ccc2c(c1C(=O)O)OB(O)CC2 [Compound 25] | lower than that of avibactam and tazobactam |
| NCCCc1cn(Cc2ccc3c(c2C(=O)O)OB(O)CC3)nn1 [Compound 9] | lower than that of avibactam and tazobactam |
| N=C(N)NCc1cnn(Cc2ccc3c(c2C(=O)O)OB(O)CC3)c1 [Compound 37] | lower than that of avibactam and tazobactam |
| Nc1cnn(Cc2ccc3c(c2C(=O)O)OB(O)CC3)c1 [Compound 32] | lower than that of avibactam and tazobactam |
| N=C(N)N1Cc2cnn(Cc3ccc4c(c3C(=O)O)OB(O)CC4)c2C1 [Compound 67] | lower than that of avibactam and tazobactam |
| O=C(O)c1c(Cn2cc(C3CNC3)nn2)ccc2c1OB(O)CC2 [Compound 47] | lower than that of avibactam and tazobactam |
| O=C(O)c1c(Cn2cc(F)cn2)ccc2c1OB(O)CC2 [Compound 15] | lower than that of avibactam and tazobactam |
| NS(=O)(=O)NCCc1cn(Cc2ccc3c(c2C(=O)O)OB(O)CC3)nn1 [Compound 51] | lower than that of avibactam and tazobactam |
| NCCc1cn(Cc2ccc3c(c2C(=O)O)OB(O)CC3)nn1 [Compound 8] | lower than that of avibactam and tazobactam |
| N=C(N)N1CC(c2cn(Cc3ccc4c(c3C(=O)O)OB(O)CC4)nn2)C1 [Compound 49] | lower than that of avibactam and tazobactam |
| O=C(O)c1c(Cn2ccnc2)ccc2c1OB(O)CC2 [Compound 23] | lower than that of avibactam and tazobactam |
| CO[C@H]1Cc2ccc(Cn3cc(CN)cn3)c(C(=O)O)c2OB1O [Compound 69] | lower than that of avibactam and tazobactam |
| N=C(N)N1Cc2cn(Cc3ccc4c(c3C(=O)O)OB(O)CC4)nc2C1 [Compound 58] | lower than that of avibactam and tazobactam |
| N#Cc1cnn(Cc2ccc3c(c2C(=O)O)OB(O)CC3)c1 [Compound 17] | lower than that of avibactam and tazobactam |
| CCCc1cn(Cc2ccc3c(c2C(=O)O)OB(O)CC3)nn1 [Compound 4] | lower than that of avibactam and tazobactam |
| O=C(O)c1c(Cn2ncc3c2CNC3)ccc2c1OB(O)CC2 [Compound 66] | lower than that of avibactam and tazobactam |

| SMILES | inhibitory activity on SHV-12 compared to control drugs |
| --- | --- |
| O=C(O)c1c(Cn2cccn2)ccc2c1OB(O)CC2 [Compound 14] | lower than that of avibactam and tazobactam |
| O=C(O)c1c(Cn2cc(CN3CCCC3)nn2)ccc2c1OB(O)CC2 [Compound 5] | lower than that of avibactam and tazobactam |
| Cl.NCCNCc1cnn(Cc2ccc3c(c2C(=O)O)OB(O)CC3)c1 [Compound 35] | lower than that of avibactam and tazobactam |
| C[C@H]1Cc2ccc(Cn3ccnn3)c(C(=O)O)c2OB1O [Compound 29] | lower than that of avibactam and tazobactam |
| O=C(O)c1c(Cn2ccnn2)ccc2c1OB(O)CC2 [Compound 2] | lower than that of avibactam and tazobactam |
| O=C(O)c1c(Cn2nccn2)ccc2c1OB(O)C1CC21 (centres unmarked) [Compound 27] | lower than that of avibactam and tazobactam |
| Cc1nccn1Cc1ccc2c(c1C(=O)O)OB(O)CC2 [Compound 24] | lower than that of avibactam and tazobactam |
| NC(=O)c1ccn(Cc2ccc3c(c2C(=O)O)OB(O)CC3)n1 [Compound 20] | lower than that of avibactam and tazobactam |
| O=C(O)c1c(Cn2ccnn2)ccc2c1OB(O)C1CC21 (centres unmarked) [Compound 28] | lower than that of avibactam and tazobactam |
| Nc1ccc(-c2cn(Cc3ccc4c(c3C(=O)O)OB(O)CC4)nn2)cn1 [Compound 60] | lower than that of avibactam and tazobactam |
| O=C(O)c1c(Cn2cc3c(n2)CNC3)ccc2c1OB(O)C=C2 [Compound 52] | lower than that of avibactam and tazobactam |
| O=C(O)c1c(CN2CC=CC2)ccc2c1OB(O)CC2 [Compound 26] | lower than that of avibactam and tazobactam |
| NCc1ccc(-c2cn(Cc3ccc4c(c3C(=O)O)OB(O)CC4)nn2)cc1 [Compound 63] | lower than that of avibactam and tazobactam |
| CC(C)(N)C#Cc1cnn(Cc2ccc3c(c2C(=O)O)OB(O)CC3)c1 [Compound 46] | lower than that of avibactam and tazobactam |
| N=C(N)NCCCc1cn(Cc2ccc3c(c2C(=O)O)OB(O)CC3)nn1 [Compound 48] | lower than that of avibactam and tazobactam |
| O=C(O)c1c(Cn2cc(-c3ccccc3)nn2)ccc2c1OB(O)CC2 [Compound 12] | lower than that of avibactam and tazobactam |
| NCCc1ccc(-c2cn(Cc3ccc4c(c3C(=O)O)OB(O)CC4)nn2)cc1 [Compound 65] | lower than that of avibactam and tazobactam |
| NCCNc1cnn(Cc2ccc3c(c2C(=O)O)OB(O)CC3)c1 [Compound 33] | lower than that of avibactam and tazobactam |
| O=C(O)c1c(Cn2cncn2)ccc2c1OB(O)CC2 [Compound 13] | lower than that of avibactam and tazobactam |
| NS(=O)(=O)Nc1cnn(Cc2ccc3c(c2C(=O)O)OB(O)CC3)c1 [Compound 34] | lower than that of avibactam and tazobactam |

| SMILES | inhibitory activity on SHV-12 compared to control drugs |
| --- | --- |
| N#CCCCc1cn(Cc2ccc3c(c2C(=O)O)OB(O)CC3)nn1 [Compound 6] | lower than that of avibactam and tazobactam |
| Nc1ccc(-c2cn(Cc3ccc4c(c3C(=O)O)OB(O)CC4)nn2)cc1 [Compound 59] | lower than that of avibactam and tazobactam |
| O=C(O)c1c(Cn2ncc3ccccc32)ccc2c1OB(O)CC2 [Compound 22] | lower than that of avibactam and tazobactam |
| NCCc1cnn(Cc2ccc3c(c2C(=O)O)OB(O)CC3)c1 [Compound 43] | lower than that of avibactam and tazobactam |
| NS(=O)(=O)c1ccc(-c2cn(Cc3ccc4c(c3C(=O)O)OB(O)CC4)nn2)cc1 [Compound 62] | lower than that of avibactam and tazobactam |
| NC1(c2cnn(Cc3ccc4c(c3C(=O)O)OB(O)CC4)c2)CC1 [Compound 40] | lower than that of avibactam and tazobactam |
| O=C(O)c1c(CN2C[C@H](O)CC2=O)ccc2c1OB(O)CC2 [Compound 44] | lower than that of avibactam and tazobactam |
| NCc1cn(Cc2ccc3c(c2C(=O)O)OB(O)CC3)nn1 [Compound 7] | lower than that of avibactam and tazobactam |
| O=C(O)c1c(Cn2ccc3cncnc32)ccc2c1OB(O)CC2 [Compound 55] | lower than that of avibactam and tazobactam |
| O=C(O)c1c(Cn2cc3c(n2)CNC3)ccc2c1OB(O)[C@@H]1C[C@H]21 [Compound 53] | lower than that of avibactam and tazobactam |
| NS(=O)(=O)N1Cc2cn(Cc3ccc4c(c3C(=O)O)OB(O)CC4)nc2C1 [Compound 57] | lower than that of avibactam and tazobactam |
| NCc1cnn(Cc2ccc3c(c2C(=O)O)OB(O)CC3)c1 [Compound 21] | lower than that of avibactam and tazobactam |
| O=C(O)c1c(Cn2cc3c(n2)CNC3)ccc2c1OB(O)CC2 [Compound 56] | lower than that of avibactam and tazobactam |
| N#Cc1ccn(Cc2ccc3c(c2C(=O)O)OB(O)CC3)n1 [Compound 18] | lower than that of avibactam and tazobactam |
| NCc1cnn(Cc2ccc3c(c2C(=O)O)OB(O)[C@@H](Sc2nncs2)C3)c1 [Compound 68] | lower than that of avibactam and tazobactam |
| O=C(O)c1c(Cn2cc([N+](=O)[O-])cn2)ccc2c1OB(O)CC2 [Compound 31] | lower than that of avibactam and tazobactam |
| NC1CCC(c2cn(Cc3ccc4c(c3C(=O)O)OB(O)CC4)nn2)CC1 (centres unmarked) [Compound 11] | lower than that of avibactam and tazobactam |
| O=C(O)c1c(Cn2cc(C(F)(F)F)cn2)ccc2c1OB(O)CC2 [Compound 16] | lower than that of avibactam and tazobactam |
| NC(=O)c1cnn(Cc2ccc3c(c2C(=O)O)OB(O)CC3)c1 [Compound 19] | lower than that of avibactam and tazobactam |
